Laboratory results taken from article PMC6814797 (Scientific Reports, 2019).
HELM strings list residues between dots; [ac] is acetyl, [am] amide, other brackets name non-standard units.

Experiment: peptide made by a vendor (peptide synthesis; 4-[2,4-dimethoxyphenyl-N-(9-fluorenylmethoxycarbonyl)aminomethyl]phenoxy resin; HBTU/HOAt/DIEA (on-resin cyclization))
Conditions: conjugation step, analytical HPLC

Question: For “PEPTIDE1{F.Y.[Lys(iPr)].[dR].[2Nal].G.[dE].[Lys(iPr)].C.[am]}|CHEM1{[MalDOTA]}$PEPTIDE1,PEPTIDE1,1:R1-7:R3|PEPTIDE1,CHEM1,9:R3-1:R1$$$V2.0”, which “final HPLC purity” value is on record?
Answer: 98.48%
